For at least one compound, name, drawing or mass did not settle the structure.
Tested on: CA3 region of rat hippocampal slices
Assay: Synchronized bursting induced by elevated [K+]o in rat hippocampal slices ex corpora (extracellular CA3 recording)
Type: cell-based
Description: The effect of various energy sources on synchronized bursting induced by elevation of [K^+]o in rat hippocampal slices ex corpora was evaluated.
In these experiments, postnatal day 28 to 40 male Sprague-Dawley rats were anesthetized and decapitated. Brains were removed and transferred to ice cold artificial cerebrospinal fluid (ACSF, comprising 124 mM NaCl, 5 mM KCl, 1.25 mM NaH2PO4, 1.5 mM MgSO4, 26 mM NaHCO3 and 2 mM CaCl2), supplemented with 10 mM glucose, which was continuously bubbled with 95% O2 and 5% CO2. Transverse hippocampal slices (˜500 microns) were prepared on a Leica VT1000s vibratome (Wetzlar Germany). The slices were allowed to recover for 1 hour at room temperature and were then transferred to an interface recording chamber at 34° C. in ACSF with 7.5 mM [K^+]o. Extracellular recordings were made from the CA3 region with an Axioclamp 2B (Axon Instruments, Forest City, Calif.) using a glass microelectrode filled with 150 mM NaCl. Data were recorded and analyzed using PClamp8 (Axon Instruments).
Synchronized bursting was induced by incubating hippocampal slices in ACSF supplemented with potassium chloride to a final concentration of 7.5 mM [K^+]o. Baseline recordings were obtained after exposure to elevated [K^+]o for 1 hour and the burst frequency had stabilized. Bursting was then recorded in ACSF containing 20 mM lactate or 20 mM pyruvate in place of the 10 mM glucose.

In the case of `O=C(O)CC(=O)C(=O)O` [oxaloacetate], the “block of the increase in bursting caused by inhibition of PEPCK by 3-MCP” value (PEPCK substrate with 3-MCP, FIGS. 6B, 6C) is reported as “cannot block the increase in bursting”, the epileptiform bursting frequency (normal glucose conditions, FIG. 6A) is reported as “reduce epileptiform bursting frequency” and the “epileptic discharges evoked in vitro (relative burst frequency)” value (normal glucose conditions, summary statement) is reported as “effective against epileptic discharges”.

Reference: US20060217303A1, “Compounds and Methods for Treating Seizure Disorders” (Wisconsin Alumni Research Foundation, priority 2005, published 2006)
